Assay results from publication PMC3983036.

The chains behind the UniProt entries cited, without tags or fusion partners. Where a name states a change or a piece, a line headed by the entry shows the natural chain unless it says otherwise.
UniProt Q9VEA6: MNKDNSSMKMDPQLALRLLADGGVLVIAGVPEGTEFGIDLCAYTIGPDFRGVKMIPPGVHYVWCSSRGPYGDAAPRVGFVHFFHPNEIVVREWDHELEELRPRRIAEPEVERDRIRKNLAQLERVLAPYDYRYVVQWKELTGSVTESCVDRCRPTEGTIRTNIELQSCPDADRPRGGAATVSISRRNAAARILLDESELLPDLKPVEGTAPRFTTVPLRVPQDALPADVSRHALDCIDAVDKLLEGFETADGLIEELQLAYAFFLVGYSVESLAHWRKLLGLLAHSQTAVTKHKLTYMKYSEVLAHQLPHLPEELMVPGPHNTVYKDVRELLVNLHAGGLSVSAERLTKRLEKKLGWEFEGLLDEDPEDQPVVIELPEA

B1: Ecd^1 mutant protein (P656S), epitope-tagged (protein, UniProt Q9W032 1-684)
chain: MSKIPGSNLEFVREEDFVEYYIFPKIPDNVQDEGALRKLMLQIRNEISAIVREKSLERSYLWHKDEFQLQVRLGGAEERLLNEETNPEEEAELGDLPPHFHGVTHYGDNISDEWFVVYLLTEITRARGDCIARVSDSDGEFLLIEAADALPDWASPETCEQRVYLVGGHLQLLQNSAASSQDKPLTMAMAVQRIRMNPTLYRCSQEIQSCIDARLKEYQIAQPHFSIHRQVLELPHSAAQLLKQKPRLLSSAVRAFCERDSLDIKALRTMRYFPPEATRVRTNVRFTRCLYAMLSHQQYLPEKRLGWHLTDPVSEPERYKEQLLGLKLASGLEILATQAKRVEGQQLEDLPAWRSYLRSLLSKGYFRDNIEGSAEYQELLNKAKVYFRGNQERFRTASRAGAEILDLLLHPAEAASEELRDEENNLQPSDSDEWLNISAEDLDSMLQDRYGPKKLYKPNGQMNAEEFTKQLAEFLDRQSNYEGIEHRGLEEPELDSDDDEPPPQANGSTGLTAKVKKNPSMRKACQRNSVIQPEEPDSTHVRNFLDFVIPEDNWDSTSEMSDYADEDDMESNLNALSGGGSVFPLDRQIQSYMEQMDRELAQTSVGKSFHGKKKTAPQADEDDFDDIEDFEPININVNTLRNMMDSYQSQVGGAGSVSNLFSAMGVGMSAVEDKEQKDISESAV
B2: Ecd^l(3)23 mutant protein (truncated Ecd), epitope-tagged (domain or fragment, UniProt Q9W032 1-650)
chain: MSKIPGSNLEFVREEDFVEYYIFPKIPDNVQDEGALRKLMLQIRNEISAIVREKSLERSYLWHKDEFQLQVRLGGAEERLLNEETNPEEEAELGDLPPHFHGVTHYGDNISDEWFVVYLLTEITRARGDCIARVSDSDGEFLLIEAADALPDWASPETCEQRVYLVGGHLQLLQNSAASSQDKPLTMAMAVQRIRMNPTLYRCSQEIQSCIDARLKEYQIAQPHFSIHRQVLELPHSAAQLLKQKPRLLSSAVRAFCERDSLDIKALRTMRYFPPEATRVRTNVRFTRCLYAMLSHQQYLPEKRLGWHLTDPVSEPERYKEQLLGLKLASGLEILATQAKRVEGQQLEDLPAWRSYLRSLLSKGYFRDNIEGSAEYQELLNKAKVYFRGNQERFRTASRAGAEILDLLLHPAEAASEELRDEENNLQPSDSDEWLNISAEDLDSMLQDRYGPKKLYKPNGQMNAEEFTKQLAEFLDRQSNYEGIEHRGLEEPELDSDDDEPPPQANGSTGLTAKVKKNPSMRKACQRNSVIQPEEPDSTHVRNFLDFVIPEDNWDSTSEMSDYADEDDMESNLNALSGGGSVFPLDRQIQSYMEQMDRELAQTSVGKSFHGKKKTAPQADEDDFDDIEDFEPININVNTLRNMMDSYQSQ
B3: Ecd, epitope-tagged (co-immunoprecipitation of Figure 1C) (protein, UniProt Q9W032 1-684)
chain: MSKIPGSNLEFVREEDFVEYYIFPKIPDNVQDEGALRKLMLQIRNEISAIVREKSLERSYLWHKDEFQLQVRLGGAEERLLNEETNPEEEAELGDLPPHFHGVTHYGDNISDEWFVVYLLTEITRARGDCIARVSDSDGEFLLIEAADALPDWASPETCEQRVYLVGGHLQLLQNSAASSQDKPLTMAMAVQRIRMNPTLYRCSQEIQSCIDARLKEYQIAQPHFSIHRQVLELPHSAAQLLKQKPRLLSSAVRAFCERDSLDIKALRTMRYFPPEATRVRTNVRFTRCLYAMLSHQQYLPEKRLGWHLTDPVSEPERYKEQLLGLKLASGLEILATQAKRVEGQQLEDLPAWRSYLRSLLSKGYFRDNIEGSAEYQELLNKAKVYFRGNQERFRTASRAGAEILDLLLHPAEAASEELRDEENNLQPSDSDEWLNISAEDLDSMLQDRYGPKKLYKPNGQMNAEEFTKQLAEFLDRQSNYEGIEHRGLEEPELDSDDDEPPPQANGSTGLTAKVKKNPSMRKACQRNSVIQPEEPDSTHVRNFLDFVIPEDNWDSTSEMSDYADEDDMESNLNALSGGGSVFPLDRQIQSYMEQMDRELAQTSVGKSFHGKKKTAPQADEDDFDDIEDFEPININVNTLRNMMDSYQSQVGGAGPVSNLFSAMGVGMSAVEDKEQKDISESAV

Legend:
[1] = target: Flag-tagged Snu114 (Drosophila) (Drosophila melanogaster); experiment: co-IP; pairs of epitope-tagged proteins expressed in S2 cells; lysis in 50 mM Tris-HCl pH 7.8, 150 mM NaCl, 1 mM EDTA, 1% Triton X-100, 0.01% Igepal; anti-Flag magnetic beads overnight at 4°C, five washes, immunoblot by the tags; cells with Ecd^1 upshifted to 30°C for 45 min before lysis; control: empty pTFW vector
[2] = target: Flag-tagged Aar2 (Drosophila) (Drosophila melanogaster) (UniProt Q9VEA6); experiment: as above

Binder | binding [1] | binding [2]
B1 | no binding | binds
B2 | no binding | binds
B3 | no binding | binds

Results are given in words; binding and its absence hold for the method and conditions named. In cells and extracts the contact can be indirect. For part of these data: Binding calls can cover weak binding; strength is not graded here. Tags and fused reporters may be left off the sequences shown.
